In experiment [1] the test system is HeLa K (ENP1 immunofluorescence, +LMB). Kind of experiment: fraction of cells with nucleolar or nucleolar/nucleoplasmic ENP1 signal (MainHitrate); higher = more cells with nucleolar/nuclear readout signal (for ENP1 -LMB: less RNAPI inhibition; for +LMB ENP1 and RP reporters: stronger nuclear/nucleolar retention, i.e. ribosome biogenesis defect). As to conditions: concentration: 1 µM; treatment time: 6 h; ENP1 +LMB; leptomycin B: 20 nM, last 1.5 h.

Experiment [2] relates to HeLa K (ENP1 immunofluorescence, no LMB). The description is as above. To be noted: concentration: 1 µM; treatment time: 6 h; ENP1 -LMB; leptomycin B: none.
A further experiment relates to HeLa RPS2-YFP reporter. Kind of experiment: fraction of reporter-positive cells with nuclear (nucleolar or nucleolar/nucleoplasmic) RPS2-YFP (MainHitrate); higher = more cells with nucleolar/nuclear readout signal (for ENP1 -LMB: less RNAPI inhibition; for +LMB ENP1 and RP reporters: stronger nuclear/nucleolar retention, i.e. ribosome biogenesis defect). To be noted: concentration: 1 µM; treatment time: 6 h.

The next experiment deals with HeLa RPL29-GFP reporter. Kind of experiment: fraction of reporter-positive cells with nuclear (nucleolar or nucleolar/nucleoplasmic) RPL29-GFP (MainHitrate); higher = more cells with nucleolar/nuclear readout signal (for ENP1 -LMB: less RNAPI inhibition; for +LMB ENP1 and RP reporters: stronger nuclear/nucleolar retention, i.e. ribosome biogenesis defect). As to conditions: concentration: 1 µM; treatment time: 6 h.

Where a name gives a salt, the structure may show the parent alone. ± gives the standard deviation of the averaged measurements. Some of the results follow. These are raw signals, not scaled to a control.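 Ribosome-assembly readouts in HeLa cells were imaged via ENP1 staining, with or without export block, or inducible tagged ribosomal protein reporters. Machine learning classified per-cell signal location versus solvent (DMSO) controls. Hits surpassed the DMSO false-positive mean by five standard deviations and were visually confirmed; three biological replicates.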

Regarding `Cc1cc(C2CCCCC2)n(O)c(=O)c1` [Ciclopirox ethanolamine], the fraction in experiment [1] is 0.0982 ± 0.15; in experiment [2], 0.987 ± 0.023. Also, the “fraction of reporter-positive cells with nuclear” value (from here on “fraction … with nuclear”) was found to be 0.136 ± 0.13 with HeLa RPS2-YFP reporter and 0.207 ± 0.051 with HeLa RPL29-GFP reporter.

With `CO[C@@]1(NC(=O)C(C(=O)O)c2ccc(O)cc2)C(=O)N2C(C(=O)O)=C(CSc3nnnn3C)CO[C@@H]21` (stereo partly drawn) [Moxalactam Disodium], the figures for the fraction in experiment [1] and in experiment [2] were 0.0927 ± 0.12 and 0.994 ± 0.011, respectively. In addition, the results for the “fraction … with nuclear” value in the experiment on HeLa RPS2-YFP reporter and in the experiment with HeLa RPL29-GFP reporter were 0.0962 ± 0.052 and 0.29 ± 0.22, respectively.

As for `Cc1ncc([N+](=O)[O-])n1CCO` [Metronidazole (Flagyl)], the results for the fraction in experiment [1] and in experiment [2] were 0.132 ± 0.19 and 0.993 ± 0.011, respectively. Further, the “fraction … with nuclear” value came out at 0.171 ± 0.1 in the experiment with HeLa RPS2-YFP reporter and 0.235 ± 0.11 in the experiment with HeLa RPL29-GFP reporter.

For the compound `CC(=O)OCC(=O)[C@H]1CC[C@H]2[C@@H]3CCC4=CC(=O)CC[C@]4(C)[C@H]3CC[C@]12C` [Deoxycorticosterone acetate], the figures for the fraction in experiment [1] and in experiment [2] were 0.0429 ± 0.057 and 0.985 ± 0.026, respectively. For the same compound, the “fraction … with nuclear” value in the experiment with HeLa RPS2-YFP reporter is 0.142 ± 0.12; in the experiment on HeLa RPL29-GFP reporter, 0.225 ± 0.066.

`CN(N=O)C(=O)N[C@@H](C=O)[C@@H](O)[C@H](O)[C@H](O)CO` [Streptozotocin (Zanosar)]: the fraction in experiment [1] stood at 0.107 ± 0.11; in experiment [2] it was 0.9984 ± 0.0027. In addition, the results for the “fraction … with nuclear” value in the experiment with HeLa RPS2-YFP reporter and in the experiment with HeLa RPL29-GFP reporter were 0.0763 ± 0.036 and 0.213 ± 0.06, respectively.

For `Nc1ccc(S(=O)(=O)Nc2ccccn2)cc1` [Sulfapyridine (Dagenan)], the fraction in experiment [1] stood at 0.103 ± 0.098; in experiment [2] it was 0.9972 ± 0.0049. The entries for the “fraction … with nuclear” value with HeLa RPS2-YFP reporter and in the experiment on HeLa RPL29-GFP reporter were 0.0877 ± 0.056 and 0.223 ± 0.052, respectively.

As for `CC(=O)N[C@H]1[C@H]([C@H](O)[C@H](O)CO)OC(C(=O)O)=C[C@@H]1NC(=N)N` [Zanamivir (Relenza)], the fraction in experiment [1] stood at 0.0701 ± 0.095; in experiment [2] it was 0.992 ± 0.013. Also, the “fraction … with nuclear” value in the experiment on HeLa RPS2-YFP reporter amounted to 0.133 ± 0.1; with HeLa RPL29-GFP reporter, 0.207 ± 0.067.

Regarding `CCCCCCCCCC(=O)N[C@@H](Cc1c[nH]c2ccccc12)C(=O)N[C@H](CC(N)=O)C(=O)N[C@@H](CC(=O)O)C(=O)N[C@@H]1C(=O)NCC(=O)N[C@@H](CCCN)C(=O)N[C@@H](CC(=O)O)C(=O)N[C@H](C)C(=O)N[C@@H](CC(=O)O)C(=O)NCC(=O)N[C@H](CO)C(=O)N[C@@H]([C@H](C)CC(=O)O)C(=O)N[C@@H](CC(=O)c2ccccc2N)C(=O)O[C@@H]1C` [Daptomycin], the fraction in experiment [1] was 0.0914 ± 0.063; in experiment [2] it was 0.998 ± 0.0035. The “fraction … with nuclear” value in the experiment with HeLa RPS2-YFP reporter turned out to be 0.121 ± 0.062; in the experiment on HeLa RPL29-GFP reporter it was 0.194 ± 0.069.

`O=C(O)c1cc(/N=N/c2ccc(S(=O)(=O)Nc3ccccn3)cc2)ccc1O` [Sulfasalazine (Azulfidine)]: the results for the fraction in experiment [1] and in experiment [2] were 0.0841 ± 0.074 and 0.9983 ± 0.003, respectively. The “fraction … with nuclear” value in the experiment with HeLa RPS2-YFP reporter amounted to 0.076 ± 0.023; in the experiment on HeLa RPL29-GFP reporter, 0.238 ± 0.081.

Consider `CC(=O)N[C@@H](CS)C(=O)O` [Acetylcysteine], for which the values for the fraction in experiment [1] and in experiment [2] were 0.126 ± 0.14 and 0.9982 ± 0.0031, respectively. Further, the results for the “fraction … with nuclear” value with HeLa RPS2-YFP reporter and with HeLa RPL29-GFP reporter were 0.108 ± 0.089 and 0.21 ± 0.08, respectively.

Turning to `CC(=O)OCC(=O)[C@@]1(O)CC[C@H]2[C@@H]3CCC4=CC(=O)CC[C@]4(C)[C@H]3C(=O)C[C@@]21C` [Cortisone acetate (Cortone)], the fraction in experiment [1] is 0.137 ± 0.18; in experiment [2], 0.99 ± 0.017. In addition, the figures for the “fraction … with nuclear” value with HeLa RPS2-YFP reporter and in the experiment with HeLa RPL29-GFP reporter were 0.158 ± 0.091 and 0.254 ± 0.079, respectively.

On to `CNCCCC12CCC(c3ccccc31)c1ccccc12` [Maprotiline hydrochloride], for which the fraction in experiment [1] was determined as 0.113 ± 0.15; in experiment [2], 0.9953 ± 0.0081. In addition, the “fraction … with nuclear” value in the experiment on HeLa RPS2-YFP reporter is 0.12 ± 0.06; in the experiment on HeLa RPL29-GFP reporter, 0.223 ± 0.089.

For the compound `COCCCC/C(=N\OCCN)c1ccc(C(F)(F)F)cc1` [Fluvoxamine maleate], the values for the fraction in experiment [1] and in experiment [2] were 0.0699 ± 0.071 and 0.998 ± 0.0036, respectively. Also, the “fraction … with nuclear” value with HeLa RPS2-YFP reporter amounted to 0.121 ± 0.079; in the experiment on HeLa RPL29-GFP reporter, 0.216 ± 0.06.

In the case of `COC(=O)C1=CO[C@@H](O)[C@@H]2C(CO)=CC[C@H]12` [Genipin], the figures for the fraction in experiment [1] and in experiment [2] were 0.114 ± 0.17 and 0.993 ± 0.013, respectively. Also, the “fraction … with nuclear” value in the experiment on HeLa RPS2-YFP reporter was determined as 0.109 ± 0.08; in the experiment on HeLa RPL29-GFP reporter, 0.246 ± 0.078.

As to `C[N+](C)(CCOc1ccccc1)Cc1ccccc1.O=C([O-])c1cc2ccccc2cc1O` [Bephenium Hydroxynaphthoate], the results for the fraction in experiment [1] and in experiment [2] were 0.124 ± 0.14 and 0.997 ± 0.0053, respectively. The “fraction … with nuclear” value in the experiment on HeLa RPS2-YFP reporter was determined as 0.17 ± 0.13; in the experiment with HeLa RPL29-GFP reporter, 0.299 ± 0.29.

Turning to `O=C1NCC2(CCN(CCc3ccccc3)CC2)O1` [Fenspiride HCl], the fraction in experiment [1] was determined as 0.0943 ± 0.14; in experiment [2] it was 0.988 ± 0.021. The “fraction … with nuclear” value in the experiment on HeLa RPS2-YFP reporter worked out at 0.13 ± 0.12; with HeLa RPL29-GFP reporter, 0.242 ± 0.054.

As for `O=C(O)c1cc(/N=N/c2ccc(O)c(C(=O)O)c2)ccc1O` [olsalazine sodium], the fraction was 0.09 ± 0.11 in experiment [1] and 0.982 ± 0.032 in experiment [2]. Moreover, the figures for the “fraction … with nuclear” value with HeLa RPS2-YFP reporter and in the experiment with HeLa RPL29-GFP reporter were 0.0826 ± 0.035 and 0.176 ± 0.023, respectively.

Source of the values: the supplement of paper PMC12542422.
